Results are given in words; binding and its absence hold for the method and conditions named. Binding seen in cells or lysates may run through a third protein. A result given as binding can be weak or reduced; the word gives no strength.
Experiments:
AR100Q (human) [1] = biological target: AR100Q (human) (UniProt P10275); assay: proximity ligation assay (PLA), MN1 cells, with Lsd1 silencing
AR100Q (human) [2] = biological target: AR100Q (human) (UniProt P10275); assay: proximity ligation assay (PLA), MN1 cells, vehicle or DHT

Sequences of proteins named here, by UniProt entry; tags and fusion partners are left off. A change or cut given only in a name is not applied to a line headed by its entry.
UniProt P10275: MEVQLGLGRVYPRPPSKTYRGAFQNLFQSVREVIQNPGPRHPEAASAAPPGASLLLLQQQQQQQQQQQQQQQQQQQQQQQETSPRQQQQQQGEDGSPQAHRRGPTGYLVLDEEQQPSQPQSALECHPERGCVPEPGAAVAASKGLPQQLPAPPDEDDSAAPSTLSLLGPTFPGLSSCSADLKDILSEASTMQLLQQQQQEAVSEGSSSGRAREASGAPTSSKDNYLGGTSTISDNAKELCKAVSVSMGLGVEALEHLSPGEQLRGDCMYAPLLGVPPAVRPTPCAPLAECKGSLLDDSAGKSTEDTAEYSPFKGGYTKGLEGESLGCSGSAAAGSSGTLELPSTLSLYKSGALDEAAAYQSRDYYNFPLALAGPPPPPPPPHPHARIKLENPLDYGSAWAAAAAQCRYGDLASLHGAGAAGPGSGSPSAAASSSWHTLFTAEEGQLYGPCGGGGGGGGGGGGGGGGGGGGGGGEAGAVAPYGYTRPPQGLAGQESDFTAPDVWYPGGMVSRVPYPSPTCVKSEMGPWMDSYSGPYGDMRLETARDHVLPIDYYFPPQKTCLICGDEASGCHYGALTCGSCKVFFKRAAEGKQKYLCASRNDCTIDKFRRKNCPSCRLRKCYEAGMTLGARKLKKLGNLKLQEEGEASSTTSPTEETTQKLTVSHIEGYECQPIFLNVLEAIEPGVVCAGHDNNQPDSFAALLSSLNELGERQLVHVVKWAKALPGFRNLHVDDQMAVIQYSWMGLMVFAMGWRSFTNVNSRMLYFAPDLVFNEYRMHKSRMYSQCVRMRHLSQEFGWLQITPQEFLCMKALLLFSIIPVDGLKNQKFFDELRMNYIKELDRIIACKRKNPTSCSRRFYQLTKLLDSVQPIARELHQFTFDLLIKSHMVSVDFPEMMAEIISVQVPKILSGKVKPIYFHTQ
UniProt Q6NZB1: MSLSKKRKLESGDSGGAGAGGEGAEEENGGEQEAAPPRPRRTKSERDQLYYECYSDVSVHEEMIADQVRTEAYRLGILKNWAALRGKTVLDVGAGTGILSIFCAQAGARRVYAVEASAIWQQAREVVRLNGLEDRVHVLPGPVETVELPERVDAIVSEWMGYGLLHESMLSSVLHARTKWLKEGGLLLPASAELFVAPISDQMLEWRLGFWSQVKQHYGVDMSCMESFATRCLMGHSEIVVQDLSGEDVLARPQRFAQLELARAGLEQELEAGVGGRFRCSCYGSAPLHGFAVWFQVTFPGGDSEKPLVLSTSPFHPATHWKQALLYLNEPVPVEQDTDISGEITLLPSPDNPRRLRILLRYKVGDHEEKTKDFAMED

- binding (AR100Q (human) [1]): binds
- binding (AR100Q (human) [2]): binds
Substance: endogenous PRMT6 (mouse; MN1 cells and quadriceps muscle) (from UniProt Q6NZB1 1-378) (enzyme)

From patent publication US20260207649A1, “LSD1 INHIBITOR AND PRMT6 INHIBITOR FOR USE IN THE TREATMENT OF A DISEASE ASSOCIATED WITH GAIN-OF-FUNCTION OF ANDROGEN RECEPTOR (AR) AND/OR WITH OVEREXPRESSION OF AN AR COACTIVATOR” (FONDAZIONE TELETHON ETS(30%), priority 2022, published 2026)
